The whole screen tested about 340,000 compounds, of which about 170 (0.05%) were called active. The shares of active, inactive and inconclusive entries below differ from those in the screen. The call rests on the fitted dose curve; in most records, active means well fitted inhibition curve with a large enough effect in the signal ratio, with a control signal flat (not every such curve was filed as active); inconclusive means small, poorly fitted or top-dose-only effect, or effect the other way, or a change in a side signal; inactive means flat fitted curve, though single readings scatter; the % refers to the signal ratio. A potency beside an inconclusive call is a rough fit, not a confirmed value.
Experiment: qHTS Assay to Find Inhibitors of Chronic Active B-Cell Receptor Signaling;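 on activity change, negative = inhibition: plate controls were basal doxycycline-induced cells for no effect and cells given 10 µM MG132 for full effect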
Conditions: ABC-DLBCL IkBa-CBG/CBR reporter, luminescence ratio (green luciferase fused to IkBa over red control in TMD8 lymphoma cells), 4 h; activity change, negative = inhibition: at 46.1 µM (top of the series) unless noted
Method in brief: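 Compounds up to 46 uM were incubated four hours with TMD8 cells whose green CBG68 luciferase is fused to IkappaBalpha; red CBR luminescence normalised the signal, and concentration-effect curves were fitted to fusion, red and ratio data.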
Potency means the concentration at half of the fitted maximal effect.

SMILES | activity change, negative = inhibition | Potency
O=C(CSc1nnnn1-c1cccnc1)Nc1ccccc1F | inconclusive: -13.2% | –
CCOC(=O)c1cnc(-n2nc(C)cc2C)nc1Nc1cccc(C(=O)O)c1 | inconclusive: -0.793% | –
Cc1cccc(OCc2nnc(SCC(=O)Nc3cccc(C(=O)N4CCOCC4)c3)n2C)c1 | inconclusive: -3.4% | –
O=[N+]([O-])c1ccc(Cl)c(/C=N/Nc2nc(N3CCOCC3)nc(N3CCOCC3)n2)c1 | inconclusive: -0.679% | –
COc1ccc2nc(NC(=O)c3ccc(Br)s3)sc2c1 | inconclusive: -8.03% | –
CCOc1ccc(/C=N/NC(=O)Cc2csc(Nc3cccc(C(F)(F)F)c3)n2)cc1 | – | inconclusive: 5.8 µM [falling, full curve]
CCOC(=O)N1CCc2c(sc3c2C(=O)NC(c2cc(OC)c(O)c(OC)c2)N3)C1 (stereo not given) | – | inconclusive: 35.5 µM [falling, single point]
O=C(Nc1cccc(Cl)c1Cl)c1cc(S(=O)(=O)NCCc2ccccc2)ccc1F | inconclusive: -2.56% | –
CCOC(=O)C1CCCN(C(=O)c2cccc(S(=O)(=O)N3CCCC3)c2)C1 (stereo not given) | inconclusive: 0.28% | –
Cc1nn2c(NCCN3CCOCC3)c3c(nc2c1-c1ccccc1)CCCC3 | inactive | –
Cc1ccc(/C=N/NC(=O)c2cccs2)cc1[N+](=O)[O-] | – | inconclusive: 31.6 µM [rising, single point]
COc1ccc(S(=O)(=O)N2CCC(C)CC2)cc1OC | inactive | –
Cc1ccccc1-n1c(SCC(=O)N/N=C/c2c(C)nn(-c3ccccc3)c2C)nc2ccccc2c1=O | inconclusive: -0.417% | –
O=C(CP(=O)(c1ccccc1)c1ccccc1)Nn1cnnc1 | inconclusive: 11.7% | –
CCOC(=O)C1=C(C)NC(C)=C(C(=O)OCC)C1C(=O)OCC(=O)N1c2ccccc2CC1C (stereo not given) | – | inconclusive: 7.31 µM [falling, partial curve]
Cc1cccc(N=Nc2cnc(N)s2)c1 | – | inconclusive: 35.5 µM [falling, single point]
CC(=O)OC1OCCOC1NC(=S)Nc1cccc(C(F)(F)F)c1 (stereo not given) | inconclusive: -0.561% | –
N#C/C(=C\c1cccc(O)c1)C(=O)Nc1ccc2c(c1)OCCO2 | – | inconclusive: 22.4 µM [falling, single point]
O=C(Nc1sccc1C(=O)N1CCOCC1)c1cccnc1 | inconclusive: -15.1% | –
Cc1cccc(C(=O)Nc2c(C#N)c(C)c(C)n2Cc2ccccc2)c1 | inactive | –
COc1cc(/C=N/NC(=O)c2ccccc2)ccc1O | – | inconclusive: 15.8 µM [falling, partial curve]
O=C(/C=C/c1ccco1)NC(=S)Nc1ccccn1 | – | inconclusive: 29.1 µM [rising, single point]
NC(=O)C1CCCN(C(=S)NCc2ccc3c(c2)OCO3)C1 (stereo not given) | inconclusive: -25.1% | –
COc1ccc(CNC(=O)c2cc(=O)c3cc(C)ccc3o2)cc1 | inconclusive: -0.113% | –
Cc1cccc(C)c1NC(=O)CN(C)C(C)C(=O)Nc1ccccc1-c1ccccc1 (stereo not given) | inconclusive: -22.3% | –

SMILES | activity change, negative = inhibition | Potency
COc1ccc(CNc2nc(C)cc(C)c2C#N)cc1 | inconclusive: -0.55% | –
Cn1c(=NC(=O)C2CC2)sc2cc(F)cc(F)c21 | inconclusive: 7.48% | –
CCCc1[nH]n(-c2ccc([N+](=O)[O-])cc2)c(=O)c1C=NCCc1ccc(OC)c(OC)c1 | inconclusive: 29.1% | –
CCC(C)[C@H]1CNCCN1CCC12CC3CC(CC(C3)C1)C2 (stereo not given in full) | inactive | –
CCOC(=O)c1sc(NC(=O)c2ccco2)c(C#N)c1C | inactive | –
CCC(=O)c1ccc(CCCCCC(=O)O)s1 | inconclusive: -9.35% | –
COc1ccccc1NC(=S)NC(=O)CCCOc1ccc(Cl)cc1Cl | – | inconclusive: 16.4 µM [falling, partial curve]
COc1ccc(/C=N/Nc2nc(C)c([N+](=O)[O-])c(N(C)c3ccccc3)n2)cc1OC | inconclusive: -0.0981% | –
N#Cc1ccc(CSc2nnc(NC(=O)c3ccc4ncsc4c3)s2)cc1 | – | inconclusive: 35.5 µM [falling, single point]
O=C(c1cncc(Br)c1)N1CCc2ccccc2C1 | inactive | –
CC[C@]12c3[nH]c4ccccc4c3CCN1C(=O)C(CC(=O)NCCCn1ccnc1)C[C@@H]2C(=O)N1CCN(C(=O)c2ccco2)CC1 (stereo not given in full) | inconclusive: 0.375% | –
CCc1ccccc1N(C)S(=O)(=O)c1ccc(-c2cc(C)no2)s1 | – | inconclusive: 12.6 µM [falling, single point]
COc1ccc2nc(NC(=O)CSc3nnc(C)n3N)sc2c1 | – | inconclusive: 7.08 µM [falling, partial curve, poor fit]
Cc1cc(C)nc(NS(=O)(=O)c2ccc(NC(=O)C3COc4ccccc4O3)cc2)n1 (stereo not given) | inactive | –
Cc1ccc(NC(=O)Cn2nnc(-c3ccccc3NC(=O)c3cccs3)n2)cc1 | – | inconclusive: 0.291 µM [falling, full curve, poor fit]
Cc1ccccc1NC(=O)CSc1nnc(-c2ccccn2)o1 | – | inconclusive: 10 µM [falling, partial curve]
Cc1ccccc1CNC(=O)Cn1cnc(S(=O)(=O)N2CCCC2)c1 | inactive | –
CCc1ccc(C(=O)CN2C(=O)NC3(CCc4ccccc43)C2=O)cc1 (stereo not given) | inactive | –
C(=N\Nc1ncnc2sc3c(c12)CCC3)/c1cccs1 | – | inconclusive: 22.4 µM [falling, single point]
Fc1ccc(-n2c(-c3cccs3)nc3nc4ccccc4nc32)cc1 | inconclusive: 11.7% | –
C1CCC(c2nn3c(-c4n[nH]c5c4CCC5)nnc3s2)CC1 | inconclusive: -5.32% | –
O=c1cc2[nH]c3ccccc3c(=O)n2nc1-c1ccccc1 | – | inconclusive: 4.61 µM [falling, partial curve, poor fit]
CCOc1cc(C2NC(=O)N(C)C(C)=C2[N+](=O)[O-])ccc1OC(C)=O (stereo not given) | inactive | –
COc1cccc(NC(=O)CN(C)C(=O)CCCc2nc3ccccc3c(=O)[nH]2)c1 | inconclusive: -5.3% | –
O=C(c1ccc(N2CCN(C(=O)c3ccc(F)cc3F)CC2)cc1)c1cccc(F)c1 | inactive | –

Structures above containing a CF3 group:
SMILES | activity change, negative = inhibition | Potency
CCOc1ccc(/C=N/NC(=O)Cc2csc(Nc3cccc(C(F)(F)F)c3)n2)cc1 | – | inconclusive: 5.8 µM [falling, full curve]
CC(=O)OC1OCCOC1NC(=S)Nc1cccc(C(F)(F)F)c1 (stereo not given) | inconclusive: -0.561% | –
